# The other results are listed elsewhere or left out. Single values are uncertain, as repeats are few or missing.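 Cells were imaged in 1,536-well plates, and nuclei stained with an antibody against cleaved PARP were counted against all DNA-stained nuclei to give the apoptosis fraction. Screening doses were chosen to leave most cells alive, and resting and induced cleaved-PARP levels differ strongly between cell lines.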
# System: SkMel28
# Assay: cleaved PARP positive nuclei fraction relative to DMSO control; melanoma cells; higher = more apoptosis
# Details: library dose: low library concentration; 72 h
row,SMILES,cleaved PARP positive nuclei fraction [%]
1,"CO[C@H]1C[C@@H]2CC[C@@H](C)[C@@](O)(O2)C(=O)C(=O)N2CCCC[C@H]2C(=O)O[C@H]([C@H](C)C[C@@H]2CC[C@@H](OCCO)[C@H](OC)C2)CC(=O)[C@H](C)/C=C(\C)[C@@H](O)[C@@H](OC)C(=O)[C@H](C)C[C@H](C)/C=C/C=C/C=C/1C [everolimus] + CO[C@@H]1[C@H](N(C)C(=O)c2ccccc2)C[C@H]2O[C@]1(C)n1c3ccccc3c3c4c(c5c6ccccc6n2c5c31)C(=O)NC4 [Midostaurin] (first compound 0.02 µM, partner dose 0.08 µM)",191
2,"CO[C@H]1C[C@@H]2CC[C@@H](C)[C@@](O)(O2)C(=O)C(=O)N2CCCC[C@H]2C(=O)O[C@H]([C@H](C)C[C@@H]2CC[C@@H](OCCO)[C@H](OC)C2)CC(=O)[C@H](C)/C=C(\C)[C@@H](O)[C@@H](OC)C(=O)[C@H](C)C[C@H](C)/C=C/C=C/C=C/1C [everolimus] + CCN(CC)CCCCNc1ncc2cc(-c3cc(OC)cc(OC)c3)c(NC(=O)NC(C)(C)C)nc2n1 [PD173074] (first compound 0.02 µM, partner dose 0.1 µM)",714
3,"CO[C@H]1C[C@@H]2CC[C@@H](C)[C@@](O)(O2)C(=O)C(=O)N2CCCC[C@H]2C(=O)O[C@H]([C@H](C)C[C@@H]2CC[C@@H](OCCO)[C@H](OC)C2)CC(=O)[C@H](C)/C=C(\C)[C@@H](O)[C@@H](OC)C(=O)[C@H](C)C[C@H](C)/C=C/C=C/C=C/1C [everolimus] + Cc1cc(N2CCOCC2)cc2[nH]c(-c3c(NC[C@@H](O)c4cccc(Cl)c4)cc[nH]c3=O)nc12 [BMS536924] (first compound 0.02 µM, partner dose 0.2 µM)",137

# — the supplement of paper PMC4604168 (melanoma cell lines)
